The values below come from US11464791B2, “Use of paricalcitol in the treatment of inflammatory anaemia” (priority 2014, dated 2022).

This data set in a line: Study A: evolution of IV Fe supplement doses. It counts as in vivo, human.

For `C[C@H](/C=C/[C@H](C)C(C)(C)O)[C@H]1CC[C@H]2/C(=C/C=C3C[C@@H](O)C[C@H](O)C3)CCC[C@]12C` [paricalcitol, 19-nor-1, 25-(OH) 2-vitamin D2], the “dose of IV Fe” value is reported as 96±13 mg/week (month 0), 109±20 mg/week (month 3) and 96±19 mg/week (month 6).
